Source: US9957247B2, “SecA inhibitors and methods of making and using thereof” (Georgia State University Research Foundation, Inc., priority 2012, dated 2018)
For some of these results: For at least one compound, name, drawing or mass did not settle the structure. Some entries share one result that the patent states for a list of compounds.

By UniProt entry, the sequences of proteins in these tests, tags left out.
UniProt P10408, whole entry: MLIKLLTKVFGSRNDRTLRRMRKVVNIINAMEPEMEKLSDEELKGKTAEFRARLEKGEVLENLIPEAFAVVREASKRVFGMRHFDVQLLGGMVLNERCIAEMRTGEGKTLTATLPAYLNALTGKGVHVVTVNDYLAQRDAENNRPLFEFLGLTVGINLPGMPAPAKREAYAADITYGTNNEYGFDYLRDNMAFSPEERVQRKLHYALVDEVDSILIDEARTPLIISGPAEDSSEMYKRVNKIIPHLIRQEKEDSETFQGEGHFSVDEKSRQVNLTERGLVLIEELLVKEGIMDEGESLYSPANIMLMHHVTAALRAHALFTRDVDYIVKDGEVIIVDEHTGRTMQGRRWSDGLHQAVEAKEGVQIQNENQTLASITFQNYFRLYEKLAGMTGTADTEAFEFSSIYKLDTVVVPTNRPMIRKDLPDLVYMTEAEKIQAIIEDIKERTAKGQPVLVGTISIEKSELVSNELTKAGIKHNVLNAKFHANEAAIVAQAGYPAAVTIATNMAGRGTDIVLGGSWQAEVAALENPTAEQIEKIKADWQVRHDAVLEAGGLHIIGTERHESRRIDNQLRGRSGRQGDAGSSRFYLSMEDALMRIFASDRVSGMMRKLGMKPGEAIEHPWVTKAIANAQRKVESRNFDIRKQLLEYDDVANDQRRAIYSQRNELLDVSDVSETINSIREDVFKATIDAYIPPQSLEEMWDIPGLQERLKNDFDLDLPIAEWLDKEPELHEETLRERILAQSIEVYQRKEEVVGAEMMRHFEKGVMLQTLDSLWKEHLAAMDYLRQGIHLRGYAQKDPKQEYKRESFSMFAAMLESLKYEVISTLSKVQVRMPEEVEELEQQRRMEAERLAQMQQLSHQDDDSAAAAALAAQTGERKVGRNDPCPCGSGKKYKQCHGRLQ

Assays:
[1] = test system: B. anthracis Sterne; assay type: cell-based
[2] = test system: B. subtilis 168; assay: Bactericidal effect assay, B. subtilis 168; assay type: cell-based; conditions: 20 μM, one hour, FIG. 2
[3] = target: EcSecA (Escherichia coli, UniProt P10408); assay type: biochemical, E. coli; conditions: Example 1; read-out: IC50, full-length SecA alone (regulated intrinsic ATPase)

SMILES | Bactericidal effect, kill of B. subtilis 168 [2] | further results
O=C(N[C@H](CO)[C@H](O)c1ccc([N+](=O)[O-])cc1)C(Cl)Cl [Chloramphenic] |  | Bacteriostatic, B. anthracis Sterne [1]: −
CCCCCCC1c2ccc(O)cc2Oc2cc(O)ccc21 [Compound 22c, 9-Hexyl-9H-xanthene-3,6-diol] | 4-5 logs | 
Oc1ccc2c(c1)Oc1cc(O)ccc1C2C1CCCC1 [Compound 22a, 9-Cyclopentyl-9H-xanthene-3,6-diol] | 4-5 logs | 
O.O=C([O-])c1ccccc1-c1c2cc(I)c(=O)c(I)c-2oc2c(I)c([O-])c(I)cc12.[Na+].[Na+] [EB, Erythrosin B, reference compound] |  | IC50 [3]: 20 to 30 µM
